Results deposited as PubChem BioAssay AID1259306 (Sanger Institute, 2017).

Assay: 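Find kinases whose loss reduces colorectal cancer cell viability or aids targeted drugs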 (primary screen)
Cell system: human SNU-C5 colorectal cancer cells
Reagents: siRNA pool against human genes
Conditions: DMSO vehicle alone, or one anchor drug: BYL719 at 1 µM, cetuximab at 5 µg/ml or trametinib at 10 nM, given 24 h into the assay
Measured: 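Replicate-averaged viability against non-targeting pool control, given as fraction and robust z-score; separate synergy scores for BYL719, cetuximab and trametinib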
Reading the numbers: robust z-score, knock-down alone: higher = more viable cells
Hit rule: 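Called essential when the robust z-score for knock-down alone is below -3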
Meaning of the calls: active = essential (knock-down alone); inactive = no change alone
The deposit covers 794 reagents; below is an unselected part. Of all reagents, 11 (1.4%) were called active. 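Calls reflect knock-down alone; synergy scores play no part, so knock-downs synergising with a drug can be called no change.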 Further read-outs or replicates are left out here. Not given: the amount of reagent, the time to read-out.

For CERT1, the entry reads robust z-score, knock-down alone 0.143; inactive. AURKA scored robust z-score, knock-down alone -2.22; inactive. Depletion of AKT3 gave: robust z-score, knock-down alone -0.556; inactive. After knock-down of SF3B1, the record shows robust z-score, knock-down alone -2.55; inactive. Against MAP4K5, the entry reads robust z-score, knock-down alone -3.47; active. After knock-down of TP53RK, the record shows robust z-score, knock-down alone 0.989; inactive.

PIK3CG gave robust z-score, knock-down alone -0.594; inactive. Knock-down of CSNK1E resulted in: robust z-score, knock-down alone -0.366; inactive. With knock-down of TSSK4 the results were robust z-score, knock-down alone 0.0696; inactive. Depletion of CREBBP gave: robust z-score, knock-down alone -1.63; inactive. Against UHMK1, the entry reads robust z-score, knock-down alone -0.895; inactive. IPPK showed robust z-score, knock-down alone -1.14; inactive.

For CLSPN the deposit lists robust z-score, knock-down alone 0.794; inactive. With knock-down of CSNK1A1 the results were robust z-score, knock-down alone 0.489; inactive. TPK1 scored robust z-score, knock-down alone 0.065; inactive. Depletion of CHEK1 came out at: robust z-score, knock-down alone -1.77; inactive. For SCYL1 the deposit lists robust z-score, knock-down alone 0.989; inactive. After knock-down of PDXK, the screen gave robust z-score, knock-down alone 0.561; inactive.

Depletion of CKS1B came out at: robust z-score, knock-down alone 0.989; inactive. Depletion of NRBP1 came out at: robust z-score, knock-down alone 0.549; inactive. AGK gave robust z-score, knock-down alone 0.622; inactive. SYNCRIP showed robust z-score, knock-down alone -1.88; inactive. With knock-down of TRIM27, the screen gave robust z-score, knock-down alone 0.809; inactive. For WT1, the values are robust z-score, knock-down alone -0.391; inactive.

For PTGS1 the deposit lists robust z-score, knock-down alone 0.571; inactive. KCNH2 gave robust z-score, knock-down alone 0.477; inactive. Against MAP4K2, the entry reads robust z-score, knock-down alone 0.748; inactive. CNOT1 showed robust z-score, knock-down alone -1.73; inactive. Depletion of IP6K1 resulted in: robust z-score, knock-down alone 0.706; inactive. PIK3C2A gave robust z-score, knock-down alone -3.06; active.

After knock-down of CDKL3, the screen gave robust z-score, knock-down alone 0.989; inactive. Depletion of RYK resulted in: robust z-score, knock-down alone 0.989; inactive. Depletion of NR4A2 came out at: robust z-score, knock-down alone -1.77; inactive. For PIM3 the deposit lists robust z-score, knock-down alone 0.677; inactive. Silencing of CPNE3 resulted in: robust z-score, knock-down alone -0.142; inactive. PCK1 showed robust z-score, knock-down alone 0.133; inactive.

An excerpt from the list above, for reference:
IPPK | robust z-score, knock-down alone = -1.14; activity call = inactive
CLSPN | robust z-score, knock-down alone = 0.794; activity call = inactive
